PubChem BioAssay AID602196 | INSERM | 2012
The whole screen tested about 23,000 reagents; this is a part drawn at random. Of all reagents, 455 (2%) were called active. 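Active includes both protection and sensitisation; some change values fall well beyond the stated -50 to +50 range.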 Unmarked entries are inactive. Not all columns of the deposit are shown. No sequences are given here. Not stated in the record: the amount of reagent.

Purpose: 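Genes whose knock-down alters cisplatin killing of lung cancer cells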
Cell system: human A549 lung cancer cells
Reagent: siRNA pair against human genes
Duration: 48 h transfection before cisplatin; time from cisplatin to read-out not stated
Challenge: cisplatin at a dose killing half of control-siRNA cells; exact dose and duration not given
Detection: 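Shift in cisplatin death relative to control siRNA, from -50 (all cells die) to +50 (no cells die); siRNAs harmful on their own scored 0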
Reading the numbers: two-siRNA summed score (-2 to +2): higher = both siRNAs protect from cisplatin killing; -2 means both sensitise; mean protection from cisplatin (shift in death) and protection from cisplatin (shift in death), siRNA C: higher = protection from cisplatin killing
Hit rule: 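siRNAs harmful alone (LDH or WST-1) get 0; others get +1 for less and -1 for more cisplatin killing; genes are active when the two siRNAs give the same sign, summing to ±2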
Calls: active = both siRNAs shift cisplatin killing the same way; inactive = no consistent shift, or siRNA harmful alone

no.	target gene	two-siRNA summed score (-2 to +2)	mean protection from cisplatin (shift in death) (%)	protection from cisplatin (shift in death), siRNA C (%)
1	LINC03163	1	2.1	-15.8
2	HDAC5	0	2.4	3.4
3	RPS25	0	39.1	46
4	DYNC1LI1	0	2.2	3.1
5	KYAT3	1	16.9	14.2
6	ACTRT2	0	3.8	6.8
7	TMEM88	0	7.5	12.9
8	DRD1	0	5.7	2.9
9	ZMYND19	0	8.2	20.2
10	LANCL2	0	-7.1	-8.5

The list goes on; the last 2 above are carried over.
no.	target gene	two-siRNA summed score (-2 to +2)	mean protection from cisplatin (shift in death) (%)	protection from cisplatin (shift in death), siRNA C (%)
9	ZMYND19	0	8.2	20.2
10	LANCL2	0	-7.1	-8.5
11	LOC441533	0	21.3	15.7
12	PRAC1	0	9.8	5.8
13	ACAD9	0	5	6.8
14	TIMELESS	-1	0	-14.3
15	COL9A3	0	-2	-0.5
16	HSD17B1	0	-7.2	-4.3
17	NIBAN2	0	3.1	11.4
18	LOC347273	1	7.1	20.2
19	WWC2	0	5.9	-1.4
20	GMPPA	0	7.7	11.9
21	ZC3H12A	0	2.7	4.3
22	RIC8B	0	8.7	8
23	APPL2	-1	-9	-3.3
